Experimental data as given in article doi:10.1101/2023.09.21.558844.
These are yes or no findings as the source states them, for the method shown. In cells and extracts the contact can be indirect. Here binding means that the protein was enriched with, or labelled near, the bait; the list need not be complete. Tags and fused reporters may be left off the sequences shown.

T1: Ume6 tagged at the carboxy terminus with TurboID (TurboID-3xMyc) (S. cerevisiae) (UniProt P39001)
T1 sequence: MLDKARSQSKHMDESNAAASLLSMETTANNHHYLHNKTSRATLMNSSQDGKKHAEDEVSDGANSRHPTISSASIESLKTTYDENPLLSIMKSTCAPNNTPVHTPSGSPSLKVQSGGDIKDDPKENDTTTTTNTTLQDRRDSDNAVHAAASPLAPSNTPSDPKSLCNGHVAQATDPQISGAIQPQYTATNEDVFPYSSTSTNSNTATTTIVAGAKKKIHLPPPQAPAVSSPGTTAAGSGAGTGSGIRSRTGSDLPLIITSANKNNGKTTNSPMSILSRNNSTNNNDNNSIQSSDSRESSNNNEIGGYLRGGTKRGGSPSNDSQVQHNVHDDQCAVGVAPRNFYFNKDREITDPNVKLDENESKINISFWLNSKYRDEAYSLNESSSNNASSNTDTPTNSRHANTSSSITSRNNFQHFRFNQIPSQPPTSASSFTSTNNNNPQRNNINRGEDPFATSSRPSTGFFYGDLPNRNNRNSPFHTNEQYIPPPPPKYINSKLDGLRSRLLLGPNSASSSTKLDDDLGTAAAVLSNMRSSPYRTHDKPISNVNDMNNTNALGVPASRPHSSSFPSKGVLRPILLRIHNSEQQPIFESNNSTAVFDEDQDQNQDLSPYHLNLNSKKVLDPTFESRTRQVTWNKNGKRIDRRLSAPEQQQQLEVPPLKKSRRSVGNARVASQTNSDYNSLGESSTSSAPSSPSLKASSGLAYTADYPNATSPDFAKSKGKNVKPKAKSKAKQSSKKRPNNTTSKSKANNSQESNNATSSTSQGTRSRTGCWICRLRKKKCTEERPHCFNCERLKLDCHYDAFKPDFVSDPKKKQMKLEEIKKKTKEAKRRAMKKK

B1: Stb3 (protein, UniProt Q12427 1-513)
chain: MSENQKEVSPPQAISVKSEASSSIFSKPISTSSPAGLAAAQRVTPGKLSTLLLEMGPLAIRHITQTLCLDIPCFKDLSSSKQRRLIMSAMESGDKEKSVVFEKIGWGQWSAKRVDPANFDKELEATNFANAKVKDLISQESQRRKSNNSNSNSGGKVEMPMKVEHNITNIDGATTPPTAVASTTIPVNIKRSKSPLAAANVVYIDENALASEDEDEEFDEDDHHLHYQNKSRNSSNNFGKSSNGDPYSFGRRRSQVVFADSTPENIEHEIIAQKIRPLLRNRRRSSIKPHTPFISKLNTHQDSSYLSPNTTSTTTPSNNNSNSNQAKIDLEKLTATSEPTSRRASRLSVSKESSIRSTLFPNKNYLIVTTNPNSKATSVSTSPKLEEQMNVSSNPIVLSDKEKHRVASQHLNGESSPQLVPHSHHQPHSDTDEEDWESIGAASLRNNSLAPNIDSVASSTNGVVSPKPTNPSFTNSQNGDIEPPLQHDQQKHEQQPRNGEDNSAAFLLMSLKS
B2: Spt5 (protein, UniProt P27692 1-1063)
chain: MSDNSDTNVSMQDHDQQFADPVVVPQSTDTKDENTSDKDTVDSGNVTTTESTERAESTSNIPPLDGEEKEAKSEPQQPEDNAETAATEQVSSSNGPATDDAQATLNTDSSEANEIVKKEEGSDERKRPREEDTKNSDGDTKDEGDNKDEDDDEDDDDDDDDEDDDDEAPTKRRRQERNRFLDIEAEVSDDEDEDEDEEDSELVREGFITHGDDEDDEASAPGARRDDRLHRQLDQDLNKTSEEDAQRLAKELRERYGRSSSKQYRAAAQDGYVPQRFLLPSVDTATIWGVRCRPGKEKELIRKLLKKKFNLDRAMGKKKLKILSIFQRDNYTGRIYIEAPKQSVIEKFCNGVPDIYISQKLLIPVQELPLLLKPNKSDDVALEEGSYVRIKRGIYKGDLAMVDQISENNLEVMLKIVPRLDYGKFDEIDPTTQQRKSRRPTFAHRAPPQLFNPTMALRLDQANLYKRDDRHFTYKNEDYIDGYLYKSFRIQHVETKNIQPTVEELARFGSKEGAVDLTSVSQSIKKAQAAKVTFQPGDRIEVLNGEQRGSKGIVTRTTKDIATIKLNGFTTPLEFPISTLRKIFEPGDHVTVINGEHQGDAGLVLMVEQGQVTFMSTQTSREVTITANNLSKSIDTTATSSEYALHDIVELSAKNVACIIQAGHDIFKVIDETGKVSTITKGSILSKINTARARVSSVDANGNEIKIGDTIVEKVGSRREGQVLYIQTQQIFVVSKKIVENAGVFVVNPSNVEAVASKDNMLSNKMDLSKMNPEIISKMGPPSSKTFQQPIQSRGGREVALGKTVRIRSAGYKGQLGIVKDVNGDKATVELHSKNKHITIDKHKLTYYNREGGEGITYDELVNRRGRVPQARMGPSYVSAPRNMATGGIAAGAAATSSGLSGGMTPGWSSFDGGKTPAVNAHGGSGGGGVSSWGGASTWGGQGNGGASAWGGAGGGASAWGGQGTGATSTWGGASAWGNKSSWGGASTWASGGESNGAMSTWGGTGDRSAYGGASTWGGNNNNKSTRDGGASAWGNQDDGNRSAWNNQGNKSNYGGNSTWGGH

Target: T1, Ume6 tagged at the carboxy terminus with TurboID (TurboID-3xMyc) (S. cerevisiae)
Assay: proximity labelling

| Binder | binding |
| --- | --- |
| B1 | binds |
| B2 | binds |
